Source: the supplement of paper PMC12819154, “High-throughput peptide-centric local stability assay extends protein–ligand identification to membrane proteins, tissues and bacteria” (Nature Structural & Molecular Biology, 2025)
The list shows a part of the results. Most entries show no effect beyond the scatter of the controls.

By UniProt entry, the sequences of proteins in these tests, tags left out. Where a name states a change or a piece, a line headed by the entry shows the natural chain unless it says otherwise.
UniProt Q8BGB8: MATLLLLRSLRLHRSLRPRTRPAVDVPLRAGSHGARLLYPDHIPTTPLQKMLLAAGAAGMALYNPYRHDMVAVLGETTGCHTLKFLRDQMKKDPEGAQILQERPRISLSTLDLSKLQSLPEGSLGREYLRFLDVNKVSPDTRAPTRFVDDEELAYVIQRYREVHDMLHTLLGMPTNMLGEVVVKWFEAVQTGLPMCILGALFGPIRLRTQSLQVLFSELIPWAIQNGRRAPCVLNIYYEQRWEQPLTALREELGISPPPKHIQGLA
UniProt Q80Y44, whole entry: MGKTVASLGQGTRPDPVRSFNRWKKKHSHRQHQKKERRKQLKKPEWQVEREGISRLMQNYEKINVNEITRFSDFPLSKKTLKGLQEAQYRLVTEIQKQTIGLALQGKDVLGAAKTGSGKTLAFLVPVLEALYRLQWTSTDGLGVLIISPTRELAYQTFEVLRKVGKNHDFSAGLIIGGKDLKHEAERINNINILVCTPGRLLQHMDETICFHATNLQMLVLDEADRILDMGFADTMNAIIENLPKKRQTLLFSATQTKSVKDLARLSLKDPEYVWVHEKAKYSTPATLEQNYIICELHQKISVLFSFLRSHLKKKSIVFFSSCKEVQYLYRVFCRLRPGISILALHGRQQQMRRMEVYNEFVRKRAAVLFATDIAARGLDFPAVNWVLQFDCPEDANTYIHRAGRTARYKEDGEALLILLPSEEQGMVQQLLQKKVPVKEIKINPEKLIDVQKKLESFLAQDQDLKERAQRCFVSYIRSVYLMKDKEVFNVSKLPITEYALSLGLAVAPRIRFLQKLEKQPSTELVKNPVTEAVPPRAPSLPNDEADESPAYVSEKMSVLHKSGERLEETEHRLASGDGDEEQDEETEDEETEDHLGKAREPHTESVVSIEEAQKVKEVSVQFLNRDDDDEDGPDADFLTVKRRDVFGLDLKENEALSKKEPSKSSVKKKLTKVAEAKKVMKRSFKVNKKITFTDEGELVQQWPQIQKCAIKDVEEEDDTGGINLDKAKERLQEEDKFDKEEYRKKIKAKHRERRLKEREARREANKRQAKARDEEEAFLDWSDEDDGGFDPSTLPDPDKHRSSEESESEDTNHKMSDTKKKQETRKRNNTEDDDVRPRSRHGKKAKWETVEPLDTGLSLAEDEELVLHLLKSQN
UniProt Q80W00: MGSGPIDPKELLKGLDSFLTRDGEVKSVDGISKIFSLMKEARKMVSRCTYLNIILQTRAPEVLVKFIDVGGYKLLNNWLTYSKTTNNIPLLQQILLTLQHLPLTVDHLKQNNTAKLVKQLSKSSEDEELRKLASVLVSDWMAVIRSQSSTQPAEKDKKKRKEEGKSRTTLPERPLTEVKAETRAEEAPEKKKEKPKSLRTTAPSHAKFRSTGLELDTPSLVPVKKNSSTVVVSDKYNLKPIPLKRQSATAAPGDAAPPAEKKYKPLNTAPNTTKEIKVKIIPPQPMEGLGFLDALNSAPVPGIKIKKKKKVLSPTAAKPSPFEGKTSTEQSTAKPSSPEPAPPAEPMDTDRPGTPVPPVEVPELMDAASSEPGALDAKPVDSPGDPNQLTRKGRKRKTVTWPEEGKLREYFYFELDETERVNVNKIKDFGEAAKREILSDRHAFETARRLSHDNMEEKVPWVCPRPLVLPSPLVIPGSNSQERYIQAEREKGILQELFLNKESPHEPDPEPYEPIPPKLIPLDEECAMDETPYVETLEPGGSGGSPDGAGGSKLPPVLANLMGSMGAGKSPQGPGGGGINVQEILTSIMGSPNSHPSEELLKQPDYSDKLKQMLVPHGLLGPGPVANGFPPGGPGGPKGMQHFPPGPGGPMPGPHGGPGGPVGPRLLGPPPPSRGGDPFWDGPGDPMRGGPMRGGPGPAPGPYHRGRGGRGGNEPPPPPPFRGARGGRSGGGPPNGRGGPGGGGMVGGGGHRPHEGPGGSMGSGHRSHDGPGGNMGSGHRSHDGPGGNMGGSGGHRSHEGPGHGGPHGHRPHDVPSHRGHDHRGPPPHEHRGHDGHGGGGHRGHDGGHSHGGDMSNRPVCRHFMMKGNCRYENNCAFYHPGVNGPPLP
UniProt Q8BGS3: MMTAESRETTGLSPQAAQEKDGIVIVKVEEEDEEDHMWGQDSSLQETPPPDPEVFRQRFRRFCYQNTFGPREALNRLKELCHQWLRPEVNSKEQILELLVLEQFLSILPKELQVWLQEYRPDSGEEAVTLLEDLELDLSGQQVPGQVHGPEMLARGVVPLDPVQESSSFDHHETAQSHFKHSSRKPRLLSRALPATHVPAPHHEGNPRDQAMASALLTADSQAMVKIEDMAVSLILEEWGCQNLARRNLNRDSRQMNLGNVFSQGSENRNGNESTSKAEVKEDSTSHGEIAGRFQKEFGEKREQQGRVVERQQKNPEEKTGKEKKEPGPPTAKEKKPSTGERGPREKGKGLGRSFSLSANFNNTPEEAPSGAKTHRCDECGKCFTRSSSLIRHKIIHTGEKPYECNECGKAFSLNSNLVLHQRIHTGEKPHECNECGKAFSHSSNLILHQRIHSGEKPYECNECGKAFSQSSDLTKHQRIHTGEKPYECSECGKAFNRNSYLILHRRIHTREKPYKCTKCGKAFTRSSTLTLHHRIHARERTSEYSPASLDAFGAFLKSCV
UniProt Q8BHL5: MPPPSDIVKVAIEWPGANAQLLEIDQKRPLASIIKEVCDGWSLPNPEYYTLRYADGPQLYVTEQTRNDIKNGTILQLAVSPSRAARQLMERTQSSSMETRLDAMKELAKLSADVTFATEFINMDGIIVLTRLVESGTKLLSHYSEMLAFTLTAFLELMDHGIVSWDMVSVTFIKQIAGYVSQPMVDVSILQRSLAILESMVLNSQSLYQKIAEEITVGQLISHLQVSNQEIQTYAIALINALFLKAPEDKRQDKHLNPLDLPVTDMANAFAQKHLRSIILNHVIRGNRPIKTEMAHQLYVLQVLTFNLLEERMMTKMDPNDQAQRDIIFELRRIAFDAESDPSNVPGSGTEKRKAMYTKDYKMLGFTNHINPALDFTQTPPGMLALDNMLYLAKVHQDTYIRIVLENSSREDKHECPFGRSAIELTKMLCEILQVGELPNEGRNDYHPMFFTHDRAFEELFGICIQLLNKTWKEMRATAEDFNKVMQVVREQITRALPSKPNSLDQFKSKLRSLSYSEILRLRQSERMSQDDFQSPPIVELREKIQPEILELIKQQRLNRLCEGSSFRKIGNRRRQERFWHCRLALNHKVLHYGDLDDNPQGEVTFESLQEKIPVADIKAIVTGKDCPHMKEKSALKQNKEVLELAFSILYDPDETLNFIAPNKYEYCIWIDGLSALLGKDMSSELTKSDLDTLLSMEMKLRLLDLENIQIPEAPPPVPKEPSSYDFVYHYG
UniProt Q8BG21: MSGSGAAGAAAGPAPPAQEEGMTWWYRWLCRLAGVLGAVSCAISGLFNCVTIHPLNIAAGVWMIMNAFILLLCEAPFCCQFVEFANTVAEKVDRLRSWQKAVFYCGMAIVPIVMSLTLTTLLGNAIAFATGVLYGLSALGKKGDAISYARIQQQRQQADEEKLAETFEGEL
UniProt Q8BGV4: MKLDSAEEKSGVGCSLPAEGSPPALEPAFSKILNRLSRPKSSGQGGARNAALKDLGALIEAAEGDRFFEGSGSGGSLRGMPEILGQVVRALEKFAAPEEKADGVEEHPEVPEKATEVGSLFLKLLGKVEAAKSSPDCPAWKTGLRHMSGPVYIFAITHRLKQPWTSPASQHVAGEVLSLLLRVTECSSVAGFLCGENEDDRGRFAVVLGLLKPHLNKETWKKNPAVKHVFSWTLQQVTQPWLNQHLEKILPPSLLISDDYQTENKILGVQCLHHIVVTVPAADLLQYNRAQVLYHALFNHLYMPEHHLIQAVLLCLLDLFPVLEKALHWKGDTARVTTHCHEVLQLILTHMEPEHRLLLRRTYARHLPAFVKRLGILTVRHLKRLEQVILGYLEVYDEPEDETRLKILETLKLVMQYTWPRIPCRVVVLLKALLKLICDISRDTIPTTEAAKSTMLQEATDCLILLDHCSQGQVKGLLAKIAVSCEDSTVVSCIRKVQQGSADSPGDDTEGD
UniProt Q8BHE8: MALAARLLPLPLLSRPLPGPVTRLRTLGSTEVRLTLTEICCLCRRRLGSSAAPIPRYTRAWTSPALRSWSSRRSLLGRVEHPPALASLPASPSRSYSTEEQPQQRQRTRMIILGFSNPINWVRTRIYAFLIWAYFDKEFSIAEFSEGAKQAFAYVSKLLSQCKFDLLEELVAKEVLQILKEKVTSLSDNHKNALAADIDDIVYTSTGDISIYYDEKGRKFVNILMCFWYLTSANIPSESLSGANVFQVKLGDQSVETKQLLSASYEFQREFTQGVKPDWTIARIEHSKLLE
UniProt Q8BG26: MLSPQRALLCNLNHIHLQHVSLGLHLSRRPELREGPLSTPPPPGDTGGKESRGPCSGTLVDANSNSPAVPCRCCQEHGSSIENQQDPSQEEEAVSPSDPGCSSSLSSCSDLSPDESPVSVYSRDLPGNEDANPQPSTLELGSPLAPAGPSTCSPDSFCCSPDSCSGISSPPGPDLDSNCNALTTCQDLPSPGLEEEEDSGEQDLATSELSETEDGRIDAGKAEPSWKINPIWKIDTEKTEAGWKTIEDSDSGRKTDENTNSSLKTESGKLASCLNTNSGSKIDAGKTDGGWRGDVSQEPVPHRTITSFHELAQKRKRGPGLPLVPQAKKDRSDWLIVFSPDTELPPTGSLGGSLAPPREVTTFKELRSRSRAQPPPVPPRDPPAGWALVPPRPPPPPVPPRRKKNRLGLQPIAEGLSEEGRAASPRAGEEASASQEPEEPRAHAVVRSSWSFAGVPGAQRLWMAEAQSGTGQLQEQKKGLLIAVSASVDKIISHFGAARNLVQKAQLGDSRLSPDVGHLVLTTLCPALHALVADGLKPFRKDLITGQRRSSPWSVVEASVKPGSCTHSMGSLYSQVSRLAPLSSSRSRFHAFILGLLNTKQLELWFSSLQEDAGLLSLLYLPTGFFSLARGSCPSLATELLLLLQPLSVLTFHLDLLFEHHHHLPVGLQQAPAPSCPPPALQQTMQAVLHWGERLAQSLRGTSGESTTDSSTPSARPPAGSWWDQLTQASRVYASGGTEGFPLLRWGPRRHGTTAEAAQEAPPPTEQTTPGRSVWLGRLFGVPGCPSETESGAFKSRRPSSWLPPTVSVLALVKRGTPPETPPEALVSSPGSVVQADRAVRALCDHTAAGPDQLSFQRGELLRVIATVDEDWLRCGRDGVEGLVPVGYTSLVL
UniProt Q8BFS6, whole entry: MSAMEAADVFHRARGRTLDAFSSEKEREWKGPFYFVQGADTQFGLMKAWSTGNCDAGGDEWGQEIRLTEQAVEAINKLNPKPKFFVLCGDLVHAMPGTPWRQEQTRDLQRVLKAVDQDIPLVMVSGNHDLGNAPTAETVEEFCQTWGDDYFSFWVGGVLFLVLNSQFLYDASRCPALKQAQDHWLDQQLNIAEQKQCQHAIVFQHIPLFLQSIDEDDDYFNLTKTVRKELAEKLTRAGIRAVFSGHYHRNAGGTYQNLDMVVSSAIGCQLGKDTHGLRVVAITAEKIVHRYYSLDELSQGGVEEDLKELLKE
UniProt Q8BH86: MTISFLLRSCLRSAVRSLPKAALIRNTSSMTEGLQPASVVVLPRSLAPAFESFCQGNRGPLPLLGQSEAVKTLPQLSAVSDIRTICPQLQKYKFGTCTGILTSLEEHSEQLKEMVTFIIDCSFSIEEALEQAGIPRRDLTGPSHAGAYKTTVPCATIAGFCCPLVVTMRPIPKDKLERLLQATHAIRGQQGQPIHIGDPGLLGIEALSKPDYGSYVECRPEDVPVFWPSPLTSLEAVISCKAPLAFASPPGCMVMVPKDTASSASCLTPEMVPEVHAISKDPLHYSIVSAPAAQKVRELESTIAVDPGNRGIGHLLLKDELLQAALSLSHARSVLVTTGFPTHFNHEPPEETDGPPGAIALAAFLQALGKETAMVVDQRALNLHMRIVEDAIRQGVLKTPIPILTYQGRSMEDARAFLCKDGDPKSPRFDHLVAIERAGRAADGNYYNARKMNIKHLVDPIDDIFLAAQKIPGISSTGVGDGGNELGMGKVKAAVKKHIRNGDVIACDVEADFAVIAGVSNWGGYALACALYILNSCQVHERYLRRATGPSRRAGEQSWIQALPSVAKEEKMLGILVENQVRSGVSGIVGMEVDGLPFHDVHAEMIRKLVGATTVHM
UniProt Q8BGB5: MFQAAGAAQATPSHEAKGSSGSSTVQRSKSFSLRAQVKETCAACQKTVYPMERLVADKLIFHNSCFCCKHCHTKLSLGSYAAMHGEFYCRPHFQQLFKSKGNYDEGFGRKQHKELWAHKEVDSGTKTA
UniProt Q8BGY7: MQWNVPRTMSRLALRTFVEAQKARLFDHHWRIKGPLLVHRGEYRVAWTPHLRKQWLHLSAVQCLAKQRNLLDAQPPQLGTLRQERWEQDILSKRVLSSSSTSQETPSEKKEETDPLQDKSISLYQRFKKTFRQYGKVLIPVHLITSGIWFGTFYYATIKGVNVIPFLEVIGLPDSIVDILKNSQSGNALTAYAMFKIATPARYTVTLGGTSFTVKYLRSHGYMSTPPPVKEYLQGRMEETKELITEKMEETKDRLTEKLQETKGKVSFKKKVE

The targets below were run with CN[C@@H]1C[C@H]2O[C@@](C)([C@@H]1OC)n1c3ccccc3c3c4c(c5c6ccccc6n2c5c31)C(=O)NC4 [staurosporine] (assay: log2 fold change of tryptic peptide abundance, ligand vs vehicle (limited proteolysis) (log2 ratio); higher = more trypsin-susceptible (destabilized)). Details: ligand concentration: 20 uM; sample: mouse liver crude lysate; replicate design: treated separately.
With “UniProt Q8BGB8 (peptide sequence: LQSLPEGSLGR, peptide start residue: 116)” the log2 fold change was -0.195. “UniProt Q80Y44 (peptide sequence: FLQKLEK, peptide start residue: 513)” was tested, and the log2 fold change was 0.397. With “UniProt Q80VP1 (peptide sequence: NIVHNYSEAEIK, peptide start residue: 12)” the log2 fold change was -0.22. With “UniProt Q8BH60 (peptide sequence: HIAVLQAEVYGAR, peptide start residue: 193)” the log2 fold change was -0.195. “UniProt Q80W00 (peptide sequence: SHEGPGHGGPHGHRPHDVPSHR, peptide start residue: 797)” gave a log2 fold change of 0.589. In the case of “UniProt Q80VW7 (peptide sequence: DLQAEVSR, peptide start residue: 1052)”, the log2 fold change is reported as 0.0756. Work on “UniProt Q8BGS3 (peptide sequence: SSTLTLHHR, peptide start residue: 527)” yielded a log2 fold change of -0.604. Target “UniProt Q80Z25 (peptide sequence: LLEEERK, peptide start residue: 131)” has a log2 fold change of -0.116. “UniProt Q8BGR5 (peptide sequence: ANGLSSPCHQSSLHHR, peptide start residue: 175)” showed a log2 fold change of 0.328. For “UniProt Q811D2 (peptide sequence: GSGPALLMK, peptide start residue: 577)”, the log2 fold change was -0.484. “UniProt Q8BFQ9 (peptide sequence: EAVRPEVGPEVQQLR, peptide start residue: 40)” was tested, and the log2 fold change was -0.00357. Target “UniProt Q8BG15 (peptide sequence: DIDNNLITSTPR, peptide start residue: 77)” has a log2 fold change of 0.188. For “UniProt Q80WR5 (peptide sequence: VAPVAPCENK, peptide start residue: 86)”, the log2 fold change was -0.0506. With “UniProt Q8BFY6 (peptide sequence: NLFQQYDR, peptide start residue: 179)” the log2 fold change was 0.0776. “UniProt Q8BHX1 (peptide sequence: AAEEQLSAR, peptide start residue: 198)” was tested, and the log2 fold change was -0.354. For “UniProt Q8BHL5 (peptide sequence: LDAMKELAK, peptide start residue: 101)”, the log2 fold change was -0.235. In the case of “UniProt Q8BG21 (peptide sequence: KGDAISYAR, peptide start residue: 142)”, the log2 fold change is reported as -0.0871. In the case of “UniProt Q8BGV4 (peptide sequence: FFEGSGSGGSLR, peptide start residue: 67)”, the log2 fold change is reported as 0.102. “UniProt Q8BG95 (peptide sequence: SYLTPVRDEEAESLRK, peptide start residue: 617)” gave a log2 fold change of 0.493. “UniProt Q8BHE8 (peptide sequence: LGDQSVETK, peptide start residue: 250)” was tested, and the log2 fold change was -0.658. For “UniProt Q8BH79 (peptide sequence: EEYQEDGKEAT, peptide start residue: 649)”, the log2 fold change was 0.481. With “UniProt Q8BFP9 (peptide sequence: ALSTESVERLPVYNK, peptide start residue: 389)” the log2 fold change was -0.18. Target “UniProt Q8BFW3 (peptide sequence: ASSEATVAFSGHHTLLSCK, peptide start residue: 573)” has a log2 fold change of 0.45. Work on “UniProt Q8BGV5 (peptide sequence: EIPLQSQSHK, peptide start residue: 162)” yielded a log2 fold change of 0.25. For “UniProt Q8BH65 (peptide sequence: QFLPEEFMK, peptide start residue: 473)”, the log2 fold change was -0.237. For “UniProt Q80WC3 (peptide sequence: AEEEAAVATASKK, peptide start residue: 466)”, the log2 fold change was 0.693. Target “UniProt Q80YR2 (peptide sequence: ELAAIAFVK, peptide start residue: 749)” has a log2 fold change of -0.155. “UniProt Q8BG26 (peptide sequence: VIATVDEDWLR, peptide start residue: 864)” showed a log2 fold change of 0.427. Target “UniProt Q811L6 (peptide sequence: ASDVLVQGEGR, peptide start residue: 2265)” has a log2 fold change of -0.477. “UniProt Q8BFS6 (peptide sequence: SAMEAADVFHR, peptide start residue: 2)” gave a log2 fold change of 0.134. Work on “UniProt Q80VJ3 (peptide sequence: AVALGKPILCLFRPQSGR, peptide start residue: 97)” yielded a log2 fold change of -0.192. With “UniProt Q8BGQ7 (peptide sequence: GGYVLHIGTIYGNLK, peptide start residue: 570)” the log2 fold change was 0.625. Work on “UniProt Q8BH61 (peptide sequence: CGPASVQAVK, peptide start residue: 410)” yielded a log2 fold change of 0.122. With “UniProt Q8BH86 (peptide sequence: AADGNYYNAR, peptide start residue: 441)” the log2 fold change was 0.0965. Work on “UniProt Q8BGB5 (peptide sequence: ELWAHKEVDSGTK, peptide start residue: 114)” yielded a log2 fold change of -0.158. For “UniProt Q8BGY7 (peptide sequence: KEETDPLQDK, peptide start residue: 110)”, the log2 fold change was 0.479.
